Where “and” joins values, the source holds several entries; their conditions need not be identical. Equal values may be shown once. Where a name gives a salt, the structure may show the parent alone. The list shows a part of the results. The data scatter; read single values as rough.
tested on: Salmonella enterica serovar Typhimurium ST313 D23580; assay: normalized bacterial growth (OD600 20 h minus 0 h, interquartile-mean normalized) (fraction of plate interquartile mean); higher = more bacterial growth (less inhibition); conditions: LPM (pH 5.8, low phosphate, low Mg2+), concentration: 10 µM, temperature: 37 °C

Row | Compound | normalized bacterial growth
1 | CCCc1c(OCCCOc2ccc(OCC(=O)O)cc2)ccc(C(C)=O)c1O | 0.854
2 | CC1=C(C(=O)O)N2C(=O)[C@@H](NC(=O)[C@H](N)c3ccccc3)[C@H]2SC1 [Cephalexin hydrate] | 1.07
3 | CC1=C(C(=O)O)N2C(=O)[C@@H](NC(=O)[C@H](N)c3ccccc3)[C@H]2SC1 [Cephalexin monohydrate] | 1.03
4 | CC(C)(C)NCC(O)COc1cccc2c1CC(O)C(O)C2 (centres undefined) [Nadolol] | 1.09
5 | CC(C)(C)NCC(O)COc1cccc2c1CC(O)C(O)C2 (centres undefined) | 0.984
6 | Cc1cccc(C)c1NC(=O)C[N+](C)(C)C [Lidocaine N-methyl hydrochloride] | 0.757
7 | C[C@H](CCC(=O)NCCS(=O)(=O)O)[C@H]1CC[C@H]2[C@@H]3[C@H](O)C[C@@H]4C[C@H](O)CC[C@]4(C)[C@H]3C[C@H](O)[C@]12C [Sodium Taurocholate hydrate] | 0.911
8 | Cc1ccc(S(=O)(=O)/C=C/C#N)cc1 | 0.0603
9 | CN(C)CC(=O)OC[C@@H](O)[C@@H](O)[C@H](O)[C@@H](O)C(=O)O | 1.24
10 | CCCn1c(=O)c2[nH]c(-c3ccc(OCC(=O)NCCN)cc3)nc2n(CCC)c1=O [Xanthine amine congener] | 1.02
11 | Cc1cc(O)cc(O)c1C(=O)O | 1.18
12 | COc1cc2oc3cc(OC)c(OC)c(CC=C(C)C)c3c(=O)c2c(O)c1CC=C(C)C | 1.08
13 | CC(C)Cn1cnc2c(N)nc3ccccc3c21 [Imiquimod] | 1.05
14 | CC(=O)OCC(=O)[C@@]1(O)[C@H](OC(C)=O)C[C@H]2[C@@H]3CCC4=CC(=O)C=C[C@]4(C)[C@@]3(F)[C@@H](O)C[C@@]21C | 0.912
15 | NC(=O)N1c2ccccc2CC(=O)c2ccccc21 | 0.996
16 | NC1=NCC2c3ccccc3Cc3ccccc3N12 (centres undefined) [Epinastine hydrochloride] | 1.24
17 | O=C(C=Cc1ccc(O)cc1)c1ccccc1O | 1.25
18 | COc1cc2c(cc1OC)-c1c/c(=N\c3c(C)cc(C)cc3C)n(C)c(=O)n1CC2 [Trequinsin hydrochloride] | 0.993
19 | CC(=O)O[C@@H]1CC[C@@]2(C)C(C[C@@H](OC(C)=O)[C@@]3(C)C4=CC(=O)O[C@@H](c5ccoc5)[C@]4(C)CCC23)C1(C)C (stereo partly drawn) [3alpha-ACETOXYDIHYDRODEOXYGEDUNIN] | 0.812
20 | O=C(O)CCCC[C@@H]1CCSS1 | 0.995
21 | CC(=O)O[C@H]1C[C@@H](O)C(C)(C)[C@@H]2C[C@@H](OC(C)=O)[C@]3(C)[C@H](CC[C@@]4(C)[C@@H](c5ccoc5)OC(=O)[C@H]5O[C@@]534)[C@@]12C | 0.69

Row | Compound | normalized bacterial growth
22 | C=C(C)[C@H]1COc2cc3oc(=O)ccc3cc2O1 | 0.83
23 | O=C1Nc2ccc(I)cc2/C1=C/c1cc(Br)c(O)c(Br)c1 | 0.961
24 | O=C1N=C(O)NC1(c1ccccc1)c1ccccc1 [Phenytoin sodium] | 1.08
25 | O=C1N=C(O)NC1(c1ccccc1)c1ccccc1 | 1.03
26 | COc1cc(NS(=O)(=O)c2ccc(N)cc2)nc(OC)n1 | 1.32
27 | CC[N+](CC)(CC(=O)Nc1c(C)cccc1C)Cc1ccccc1 | 1.13
28 | C=N[C@@H](C(=O)N[C@@H]1C(=O)N2[C@@H]1SC(C)(C)[C@@H]2C(=O)O)c1ccccc1 [Metampicillin sodium salt] | 1.08
29 | CC1(C)O[C@@H]2[C@@H](CO[C@@]3(COS(N)(=O)=O)OC(C)(C)O[C@@H]23)O1 | 0.86
30 | COc1cc2ccc(=O)oc2cc1O | 1.04
31 | NCCC(=O)NCCc1c[nH]cn1 [Carcinine] | 1.08
32 | CC(C)[C@@H]1CC[C@@H](C)CC1=O | 0.981
33 | NCCCCN [Putrescine dihydrochloride] | 0.892
34 | CC1=CC2C(CC1=O)C(C)=CCC2C(C)C (centres undefined) | 1.04
35 | CCCCCCCCNC(C)C(O)c1ccc(SC(C)C)cc1 (centres undefined) [Suloctidil] | 0.743
36 | CCCCCCCCNC(C)C(O)c1ccc(SC(C)C)cc1 (centres undefined) | 0.803
37 | CC(=O)CC(c1ccc([N+](=O)[O-])cc1)c1c(O)c2ccccc2oc1=O (centres undefined) [Acenocoumarol] | 1.08
38 | C[C@H]1O[C@@H](O[C@H]2[C@@H](O)C[C@H](O[C@H]3[C@@H](O)C[C@H](O[C@H]4CC[C@@]5(C)[C@H](CC[C@@H]6[C@@H]5CC[C@]5(C)[C@@H](C7=CC(=O)OC7)CC[C@]65O)C4)O[C@@H]3C)O[C@@H]2C)C[C@H](O)[C@@H]1O | 0.877
39 | C=C(C)[C@@H]1CC[C@]2(C)CC[C@]3(C)[C@H](CC[C@@H]4[C@@]5(C)CC[C@H](O)C(C)(C)[C@@H]5CC[C@]43C)[C@@H]12 | 1.03
40 | S=c1[nH]cnc2nc[nH]c12 | 0.23
41 | COc1cc2c(cc1OC)[C@@H]1C(=O)c3ccc4c(c3O[C@@H]1CO2)C=CC(C)(C)O4 | 0.756
42 | CC(=O)/C=C\[C@@H]1[C@@]2(C)CCCC(C)(C)C2CC[C@@]1(C)O (some centres undefined) | 0.808

Row | Compound | normalized bacterial growth
43 | COc1ccc2c3c1O[C@H]1C[C@@H](O)C=C[C@@]31CCN(C)C2 | 1.12 and 0.899
44 | CCCCC1(C2CCCC2)Cc2cc(OCC(=O)O)c(Cl)c(Cl)c2C1=O (stereo in doubt) [R(+)-Butylindazone] | 0.637
45 | CCCC(=O)O[C@]1(C(=O)CO)CC[C@H]2[C@@H]3CCC4=CC(=O)CC[C@]4(C)[C@H]3[C@@H](O)C[C@@]21C | 0.997
46 | CC1(C)S[C@@H]2[C@H](NC(=O)COc3ccccc3)C(=O)N2[C@H]1C(=O)O | 0.612
47 | Cc1nnc(SCC2=C(C(=O)O)N3C(=O)[C@@H](NC(=O)Cn4cnnn4)[C@H]3SC2)s1 [Cefazolin sodium] | 0.912
48 | O=C1OC(=O)[C@H]2[C@@H]1[C@@H]1CC[C@H]2O1 [Norcantharidin] | 1.05
49 | C[C@]12CCC3c4ccc(OS(=O)(=O)O)cc4CCC3C1CC[C@H]2O (some centres undefined) | 1.23
50 | CC(C)NC(=N)NC(=N)Nc1ccc(Cl)cc1 | 1.42
51 | O=c1[nH]c2cc(Cl)c(Cl)cc2[nH]c1=O ["6,7-Dichloroquinoxaline-2,3-dione"] | 1.01
52 | COC(=O)[C@@H](N)Cc1ccc(O)c(O)c1 ["L-3,4-Dihydroxyphenylalanine methyl ester hydrochloride"] | 0.919
53 | C[C@]12CCC(=O)C=C1C=C[C@@H]1[C@@H]2CC[C@@]2(C)[C@H]1CC[C@@]21CCC(=O)O1 | 0.779
54 | COc1ccc2c(c1)c(CC(=O)O)c(C)n2Cc1ccc(Cl)cc1 [1-(4-Chlorobenzyl)-5-methoxy-2-methylindole-3-acetic acid] | 0.573
55 | CC1(C)[C@@H](O)CC[C@]2(C)[C@H]3C(=O)C=C4[C@@H]5C[C@@](C)(C(=O)O)CC[C@]5(C)CC[C@@]4(C)[C@]3(C)CC[C@@H]12 | 1.06
56 | C[C@@H]1O[C@@H](OC[C@H]2O[C@@H](Oc3cc(O)c4c(c3)O[C@H](c3ccc(O)c(O)c3)CC4=O)[C@H](O)[C@@H](O)[C@@H]2O)[C@H](O)[C@H](O)[C@H]1O | 1.33
57 | Oc1cc(O)c2c(c1)O[C@H](c1ccc(O)c(O)c1)[C@@H](O)C2 (racemic) ["Catechin-(+,-) hydrate"] | 1.42
58 | CCCCCC(=O)Cc1cc(O)cc(O)c1C(=O)Oc1cc(CC(=O)CCCCC)c(C(=O)O)c(OC)c1 | 0.864
59 | COc1ccc(-c2coc3cc(O)ccc3c2=O)c(O)c1O | 0.606
60 | NC(=O)OCC(O)COc1ccc(Cl)cc1 (centres undefined) [Chlorphensin carbamate] | 0.845
61 | NCCS [Cysteamine hydrochloride] | 1.01
62 | COCCOC(=O)C1=C(C)NC(C)=C(C(=O)OC(C)C)C1c1cccc([N+](=O)[O-])c1 (centres undefined) [Nimodipine] | 0.957
63 | CN1C(C(=O)Nc2ccccn2)=C(O)c2ccccc2S1(=O)=O [Piroxicam] | 0.881

Row | Compound | normalized bacterial growth
64 | NC(=O)c1ccc[n+]([C@@H]2O[C@H](COP(=O)([O-])OP(=O)(O)OC[C@H]3O[C@@H](n4cnc5c(N)ncnc54)[C@H](O)[C@@H]3O)[C@@H](O)[C@H]2O)c1 | 1.26
65 | CNCCC=C1c2ccccc2C=Cc2ccccc21 [Norcyclobenzaprine] | 1.11
66 | NCC(=O)CCC(=O)O | 0.682
67 | N=C(N)SCCc1ccc(CCSC(=N)N)cc1 ["1,4-PBIT dihydrobromide"] | 0.949
68 | COc1ccc(CN(CCN(C)C)c2ncccn2)cc1 | 1.2
69 | COc1c2ccoc2cc2oc(C)cc(=O)c12 | 0.915
70 | Cc1ccc(C)c(OCCCC(C)(C)C(=O)O)c1 | 0.743
71 | O=c1[nH]c2cc(Cl)ccc2c(O)c1-c1cccc(Oc2ccccc2)c1 | 1.16
72 | C=CCN1CCc2c(cc(O)c(O)c2Cl)C(c2ccccc2)C1 (centres undefined) [()-Chloro-APB hydrobromide] | 0.719
73 | COC(=O)c1c(C)c2c(c(C)c1O)OC(=O)c1c(C)c(Cl)c(O)c(Cl)c1O2 | 0.91
74 | COc1cc2c(cc1OC)[C@@H]1Cc3ccc(OC)c(OC)c3CN1CC2 | 0.78
75 | NCCC(=O)c1ccccc1N | 0.858
76 | O=C(CCCN1CCC(O)(c2ccc(Cl)cc2)CC1)c1ccc(F)cc1 [Haloperidol] | 1.11
77 | CCCCCCCCCCOc1cc2c(O)c(C(=O)OCC)cnc2cc1OCC | 0.826
78 | C=CCc1ccc(O)c(-c2cc(CC=C)ccc2O)c1 | 0.756
79 | COc1ccc2c(c1)C(=O)N(CCc1ccc(S(=O)(=O)NC(=O)NC3CCCCC3)cc1)C(=O)C2(C)C [Gliquidone] | 0.971
80 | CC(C)c1cccc(=O)c(O)c1 | 0.155
81 | CC(=N)NCc1cccc(CN)c1 [1400W dihydrochloride] | 1.16
82 | CN(C)CCN(Cc1ccc(Cl)cc1)c1ccccn1 [Chloropyramine hydrochloride] | 1.03
83 | COc1ccc([C@@H]2Sc3ccccc3N(CCN(C)C)C(=O)[C@@H]2OC(C)=O)cc1 | 0.556
84 | COc1ccc([C@@H]2Sc3ccccc3N(CCN(C)C)C(=O)[C@@H]2OC(C)=O)cc1 [Diltiazem hydrochloride] | 0.844

Retrieved one by one from above, 4 records:
Row | Compound | normalized bacterial growth
67 | N=C(N)SCCc1ccc(CCSC(=N)N)cc1 ["1,4-PBIT dihydrobromide"] | 0.949
84 | COc1ccc([C@@H]2Sc3ccccc3N(CCN(C)C)C(=O)[C@@H]2OC(C)=O)cc1 [Diltiazem hydrochloride] | 0.844
68 | COc1ccc(CN(CCN(C)C)c2ncccn2)cc1 | 1.2
83 | COc1ccc([C@@H]2Sc3ccccc3N(CCN(C)C)C(=O)[C@@H]2OC(C)=O)cc1 | 0.556

Source: the supplement of paper PMC10398353
